# According to PubChem BioAssay AID540303 (National Center for Advancing Translational Sciences (NCATS), 2011):
# Among all 330,000 compounds or so, about 1,000 (0.3%) were called active. Inconclusive means that the source gave no clear call. Such entries were picked first, then a sample of the others. The call rests on the fitted dose curve; in most records, active means well fitted inhibition curve with a large enough effect; inconclusive means small, poorly fitted or top-dose-only effect; inactive means no such curve, though single readings can be large or run the other way; tested in mouse RAW 264.7 cells. A potency beside an inconclusive call is a rough fit, not a confirmed value.
# Test: qHTS for Inhibitors of Cell Surface uPA Generation; further: nearly all actives have a fitted effect of over 55% in size
# Settings: cell surface uPA generation assay; series mostly up to 38.3 µM; activity change, negative = inhibition: at the top concentration
# How it was run: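 Using RAW 264.7 macrophages, the screen measures whether compounds keep cellular ATP up by preventing uPA-driven LF translocation. Treatment lasted 24 h at 37 C, with a final top concentration of 38.3 uM, and luminescence was the readout.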
# On the % scale 0 is the no-effect control and ±100 the full control effect; potency means the concentration at half of the fitted maximal effect.
SMILES,Potency,"activity change, negative = inhibition"
COC(=O)C1=C(c2ccc(-c3ccccc3)c(F)c2)C[C@@H]2CC[C@H]1N2C(=O)NCC1CC1,"inconclusive: 12.6 µM [inhibitor, single point]",
CN1CC=C(/C=C/c2ccc(-c3ccccc3)cc2)CC1,"inconclusive: 10 µM [inhibitor, partial curve]",
COc1ccc(-c2ccoc2)cc1[C@H]1[C@H]2C=CC[C@@H](C)[C@@H]2C(=O)N1Cc1ccccc1,"inconclusive: 31.6 µM [inhibitor, partial curve, poor fit]",
COC(=O)C1=C(c2ccc(F)cc2OCc2ccccc2)C[C@@H]2CC[C@H]1N2C(=O)NCc1cccc(C(F)(F)F)c1,"inconclusive: 14.1 µM [inhibitor, single point]",
Clc1ccc(C(Cn2ccnc2)OCc2csc3c(Cl)cccc23)c(Cl)c1 (stereo not drawn),"inconclusive: 12.6 µM [inhibitor, single point]",
C[C@]12CC[C@@H]3c4ccc(O)c(O)c4CC[C@H]3[C@@H]1CC[C@@H]2O,"inconclusive: 6.31 µM [inhibitor, partial curve, poor fit]",
O=C(O)CC1OCC=C2CN3CCC45c6ccccc6NC4C1C2CC35 (stereo not drawn),,inactive: 5.05%
CC/C=C/CC(=O)N[C@@H](c1ccccc1)[C@@H](O)C(=O)O[C@H]1C[C@@]2(O)[C@@H](OC(=O)c3ccccc3)C3[C@](C)(C(=O)[C@H](OC(C)=O)C(=C1C)C2(C)C)[C@@H](O)C[C@H]1OC[C@@]31OC(C)=O (stereo partly drawn),"inconclusive: 0.0126 µM [inhibitor, full curve, poor fit]",
CCC(CC)NCc1c[nH]c2ccccc12,active: 4.47 µM,
CCCC[C@@H](CNC)NC[C@H](Cc1ccc(O)cc1)NCCc1ccc(OCC)cc1,"inconclusive: 12.6 µM [inhibitor, single point]",
C[C@H](CO)N1C[C@H](C)[C@@H](CN(C)S(=O)(=O)c2ccccc2)Oc2c(NC(=O)Nc3ccc(C(F)(F)F)cc3)cccc2C1=O,"inconclusive: 8.91 µM [inhibitor, partial curve, poor fit]",
Cc1[nH]nc2ccc(-c3cncc(OC[C@@H](N)Cc4c[nH]c5ccccc45)c3)cc12,"inconclusive: 0.794 µM [inhibitor, full curve, poor fit]",
CCOC(=O)[C@]12Cc3cc(N(C)C)ccc3[C@H]1N(Cc1ccccc1)C(=O)c1ccccc12,"inconclusive: 12.6 µM [inhibitor, single point]",
CCOC(=O)c1ccc(-[n+]2c(-c3ccccc3)cc(-c3ccccc3)cc2-c2ccccc2)cc1,"inconclusive: 11.2 µM [inhibitor, partial curve, poor fit]",
Cc1[nH]c2ccc(OC(F)(F)F)cc2c1CCNCc1ccc(Cl)cc1,,inactive: 1.65%
Nc1ccc(N2CCN(Cc3ccccc3Cl)CC2)c(Cl)c1,,inactive: 13.8%
O=C1NC(=O)C(CCc2ccncc2)(Cc2ccc(OCc3ccccc3)cc2)C(=O)N1,,inactive: 0.499%
CCN(CCCl)Cc1ccccc1Br,,inactive: 0.279%
CCOC(=O)c1cnc(SCc2ccc(Cl)c(Cl)c2)nc1N1CC1,,inactive: -7.63%
CSc1ccc(C(=O)C2CCCN(C(=O)CCc3c(C)nn(C)c3C)C2)cc1 (stereo not drawn),"inconclusive: 11.2 µM [inhibitor, single point]",
Cc1cccc(OCCn2cccc2/C=C2/C(=O)NC(=O)N(Cc3ccco3)C2=O)c1,,inactive: 3.38%

SMILES,Potency,"activity change, negative = inhibition"
Cc1cc(OCC(=O)N2CCC(C(N)=O)CC2)c2c3c(c(=O)oc2c1)CCCC3,,inactive: 9.88%
Brc1ccccc1,,inactive: -5.82%
COc1cc2c(cc1OC)-c1c(OC)c(OC)cc3ccnc(c13)C2=O,"inconclusive: 1.26 µM [inhibitor, full curve]",
COC(=O)C1=C(c2cccc(OCc3ccccc3)c2)C[C@@H]2CC[C@H]1N2C(=O)NCc1ccc(Cl)cc1,"inconclusive: 10 µM [inhibitor, single point]",
Nc1ncnc2c1ccn2[C@@H]1O[C@H](CO)[C@@H](O)[C@H]1O,"inconclusive: 0.316 µM [inhibitor, full curve, poor fit]",
Cn1c(=O)n(C)c2cc([N+](=O)[O-])c(N3CCNCC3)cc21,,inactive: 3.41%
COC12C(COC(N)=O)C3=C(C(=O)C(C)=C(N)C3=O)N1CC1C2N1C (stereo not drawn),"inconclusive: 5.62 µM [inhibitor, partial curve, poor fit]",
COC(=O)C1=C(c2ccc(OC)c(OC)c2)C[C@@H]2CC[C@H]1N2C(=O)N1CCc2cc(OC)c(OC)cc2C1,"inconclusive: 12.6 µM [inhibitor, single point]",
C[C@H]1O[C@@H](OC2CC[C@]3(C=O)[C@H]4CC[C@]5(C)[C@@H](C6=CC(=O)OC6)CC[C@]5(O)[C@@H]4CC[C@]3(O)C2)CC2OC(C)(C)OC21 (stereo partly drawn),,inactive: 5.92%
COC(=O)C1=C(c2cccc(OCc3ccccc3)c2)C[C@@H]2CC[C@H]1N2C(=O)NC1CCN(Cc2ccccc2)CC1,"inconclusive: 12.6 µM [inhibitor, single point]",
CCO[C@H]1OC(C(=O)N2CCN(Cc3ccc4c(c3)OCO4)CC2)=C[C@@H](c2ccc(Br)cc2)[C@@H]1CCCO,"inconclusive: 20 µM [inhibitor, partial curve, poor fit]",
COc1ccc([C@H]2CC(=O)C=C(/C=C/Cc3ccccc3)C2)cc1,"inconclusive: 12.6 µM [inhibitor, single point]",
Cc1ccc(S(=O)(=O)Nc2ccc3c(c2)CC(=O)N([C@H](C)CO)C[C@@H](C)[C@H](CN(C)Cc2ccc(-c4ccccc4)cc2)O3)cc1,"inconclusive: 28.2 µM [inhibitor, single point]",
COc1cccc(CC(=O)N2CCN(Cc3cccc(Cl)c3)CC2)c1,,inactive: -1.56%
CC(=NCC1CCCO1)c1c(O)n(-c2ccccc2C)c(=O)[nH]c1=O (stereo not drawn),,inactive: -3.46%
c1ccc2c(CN3CCCCCC3)c[nH]c2c1,"inconclusive: 4.47 µM [inhibitor, partial curve, poor fit]",
NC(N)=N/N=C/c1ccc(N2CCOCC2)cc1,active: 7.94 µM,
COC(=O)C1=C(c2ccc(Cl)c(C(F)(F)F)c2)C[C@@H]2CC[C@H]1N2C(=O)NCCOc1ccc(OC)cc1,"inconclusive: 12.6 µM [inhibitor, single point]",
C#CCOc1cc(C2C3=C(COC3=O)Nc3cc4c(cc32)OCO4)ccc1OC (stereo not drawn),"inconclusive: 3.16 µM [inhibitor, full curve, poor fit]",
O=C1NC(=O)C(=Cc2ccc(SC3CCCCC3)o2)C(=O)N1,"inconclusive: 7.94 µM [inhibitor, single point]",
Cc1ccc(C)c(OCC(=O)N2CCCN(C)CC2)c1,,inactive: -2.1%

SMILES,Potency,"activity change, negative = inhibition"
CN1CCN(c2ccc(N)c(N3CCN(C)CC3)c2)CC1,,inactive: 4.05%
CCCCCN=C(N)N/N=C/c1c[nH]c2ccc(OC)cc12,"inconclusive: 1.41 µM [inhibitor, partial curve, poor fit]",
O=C1NC(=O)C(=Cc2ccc(OCC(=O)N3CCOCC3)cc2)C(=O)N1,,inactive: 2%
Cn1c(=O)oc2cc(NC(=O)CCl)ccc21,"inconclusive: 8.91 µM [inhibitor, single point]",
COC(=O)C1=C(c2ccc(-c3ccccc3)c(F)c2)C[C@@H]2CC[C@H]1N2C(=O)NC1Cc2ccccc2C1,"inconclusive: 12.6 µM [inhibitor, single point]",
Cc1cccc(-n2ncc3c(NCc4cccnc4)ncnc32)c1,"inconclusive: 10 µM [inhibitor, single point]",
O=C1NC(=O)N(Cc2ccccc2Cl)C(=O)/C1=C/c1cccs1,"inconclusive: 11.2 µM [inhibitor, partial curve, poor fit]",
Nc1c(C(=O)Nc2ccc3c(c2)OCCO3)nnn1CCc1ccccc1,active: 7.94 µM,
O=C(Nc1ccc(S(=O)(=O)Nc2ccccc2)cc1)c1ccc(CN2CCOCC2)cc1,"inconclusive: 11.2 µM [inhibitor, single point]",
CCN1CCN(C(=O)COc2cc(=O)n(CC)c3ccccc23)CC1,,inactive: -6.94%
CC(C)(C)c1ccc(CSc2cnn(C(C)(C)C)c(=O)c2Cl)cc1,"inconclusive: 0.158 µM [inhibitor, full curve, poor fit]",
Nc1ccc(C2(c3ccc(N)cc3)CN3CCC2CC3)cc1,,inactive: -0.495%
Nc1ccc(CCN2CCN(c3cccc(C(F)(F)F)c3)CC2)cc1,,inactive: -14.6%
COc1cccc2c1cc([N+](=O)[O-])c1c(C(=O)O)cc3c(c12)OCO3,"inconclusive: 14.1 µM [inhibitor, partial curve, poor fit]",
CCCCCCCCn1sccc1=O,"inconclusive: 11.2 µM [inhibitor, single point]",
Cc1ccc2[nH]c(C(=O)N/N=C/c3ccccc3O)c(C)c2c1,active: 3.55 µM,
COC1C(O)C(C)OC(OC2C(Oc3cccc4c(O)c5c(=O)oc6ccc(C)c7c(=O)oc(c34)c5c67)OC(C)C(O)C2O)C1O (stereo not drawn),,inactive: -4.14%
C=C1C(O)[C@@H]2O[C@]3(CC[C@H](/C=C/C(C)[C@@H]4CC(C)=CC5(O[C@H](C[C@@](C)(O)C(=O)O)CCC5O)O4)O3)CC[C@H]2O[C@@H]1C(O)CC(C)[C@H]1OC2(CCCCO2)CCC1C (stereo partly drawn),"inconclusive: 0.891 µM [inhibitor, full curve, poor fit]",
O=C(Nc1cccc(Cl)c1Cl)C1CC(=O)N(c2ccc(Br)cc2)C1 (stereo not drawn),"inconclusive: 11.2 µM [inhibitor, single point]",
O=C(CCN1CCOCC1)c1ccc(N2CCCCC2)cc1,"inconclusive: 7.94 µM [inhibitor, partial curve]",
COc1ccc(-n2cnc3cc(C(=O)N4CCC5(CC4)OCCO5)ccc32)cc1,"inconclusive: 2.51 µM [inhibitor, full curve, poor fit]",

# Some of the entries above in a different format:
SMILES | Potency | activity change, negative = inhibition
CN1CCN(c2ccc(N)c(N3CCN(C)CC3)c2)CC1 |  | inactive: 4.05%
CCCCCN=C(N)N/N=C/c1c[nH]c2ccc(OC)cc12 | inconclusive: 1.41 µM [inhibitor, partial curve, poor fit] | 
O=C1NC(=O)C(=Cc2ccc(OCC(=O)N3CCOCC3)cc2)C(=O)N1 |  | inactive: 2%
